According to PMC12412890:
No constants are given. Whether binding was seen depends on the method and setting. In cells and extracts the contact can be indirect. Some entries that bind do so weakly or less than the wild type.

Protein sequences, listed by entry. Tags and fused reporters are not part of them.
UniProt P57073: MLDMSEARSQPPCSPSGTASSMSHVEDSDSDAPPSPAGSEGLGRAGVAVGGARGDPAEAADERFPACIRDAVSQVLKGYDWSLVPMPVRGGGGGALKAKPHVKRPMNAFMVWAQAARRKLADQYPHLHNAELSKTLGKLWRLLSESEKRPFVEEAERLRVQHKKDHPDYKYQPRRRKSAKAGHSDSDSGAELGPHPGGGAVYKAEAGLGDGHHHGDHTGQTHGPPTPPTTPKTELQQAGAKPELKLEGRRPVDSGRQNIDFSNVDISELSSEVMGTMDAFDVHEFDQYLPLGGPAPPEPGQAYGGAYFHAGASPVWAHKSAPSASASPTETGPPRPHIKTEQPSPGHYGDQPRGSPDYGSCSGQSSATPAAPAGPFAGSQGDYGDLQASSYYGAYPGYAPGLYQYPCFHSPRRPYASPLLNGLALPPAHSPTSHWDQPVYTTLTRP
UniProt Q14258: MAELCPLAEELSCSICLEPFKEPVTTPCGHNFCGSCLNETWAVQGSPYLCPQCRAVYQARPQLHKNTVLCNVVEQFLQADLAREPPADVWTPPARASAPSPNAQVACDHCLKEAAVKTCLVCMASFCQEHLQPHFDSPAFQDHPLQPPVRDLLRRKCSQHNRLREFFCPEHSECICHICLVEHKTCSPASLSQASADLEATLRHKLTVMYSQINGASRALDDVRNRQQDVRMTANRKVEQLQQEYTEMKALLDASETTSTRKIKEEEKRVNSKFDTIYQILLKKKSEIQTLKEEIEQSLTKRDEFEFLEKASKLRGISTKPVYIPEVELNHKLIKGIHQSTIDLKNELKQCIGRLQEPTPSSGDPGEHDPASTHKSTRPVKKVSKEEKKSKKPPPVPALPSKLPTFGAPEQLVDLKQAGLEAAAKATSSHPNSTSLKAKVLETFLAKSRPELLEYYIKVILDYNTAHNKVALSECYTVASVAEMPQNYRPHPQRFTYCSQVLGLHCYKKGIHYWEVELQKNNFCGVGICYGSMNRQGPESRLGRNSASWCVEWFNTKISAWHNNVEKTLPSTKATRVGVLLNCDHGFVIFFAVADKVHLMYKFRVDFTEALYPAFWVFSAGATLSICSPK

Biological target: SOX8 (human (endogenous in ligament fibroblasts from patients)) (UniProt P57073)
Test: co-IP; endogenous proteins in ligament fibroblast lysates; SOX8, TRIM25 or IgG antibodies 1 h at room temperature, then Protein A + G magnetic beads overnight at 4°C; Western blot

binding: binds
Substance: TRIM25 (from UniProt Q14258 1-630) (enzyme)
